According to the supplement of paper PMC10735217:
Where a name gives a salt, the structure may show the parent alone. Some of the results follow. Single values are uncertain here, since repeats match poorly.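 The human kidney-derived cells carry a stably integrated construct of eight TEAD-binding elements driving luciferase, read by luminescence in a drug-repurposing library screen. A compound counts as a hit when its signal is more than five robust Z scores above the plate mean.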

System: HEK293A TEAD-LUC reporter
Assay: TEAD-luciferase reporter activity (YAP activation), robust Z score vs plate; higher = stronger YAP/TEAD activation
Settings: 24 h

SMILES	TEAD-luciferase reporter activity (compound concentration: 200 nM)	TEAD-luciferase reporter activity (compound concentration: 2 uM)	TEAD-luciferase reporter activity (compound concentration: 10 uM)
COc1cc(OC)nc(O[C@H](C(=O)O)C(OC)(c2ccccc2)c2ccccc2)n1 [Darusentan]	inactive: -0.86	inactive: 0.406	inactive: -0.618
O=C(O)C1CCC(c2cc3cccnc3c(-c3cccc(F)c3)n2)CC1 (configuration not stated)	inactive: -1.39	inactive: -0.163	inactive: 0.468
CC1(C)C2CCC1(S(=O)(=O)O)C(=O)C2 (configuration not stated)	inactive: -1.34	inactive: 4.86	inactive: 0.354
O=S(=O)(c1ccc(F)cc1)N1CCn2c3c(c4cc(C5CCCCC5)ccc42)CCCC31 (configuration not stated)	inactive: -0.442	inactive: -1.09	inactive: -0.978
Cc1c(C)c2c(c(C)c1O)CC[C@@](C)(C(=O)N1CCN(c3ccc(NC(=N)c4cccs4)cc3)CC1)O2	inactive: 1.28	inactive: 0.845	inactive: 0.012
CCN(CC)CC(=O)NC1c2ccccc2CS(=O)(=O)c2ccccc21 (configuration not stated) [amidepin]	inactive: 0.135	inactive: -1.7	inactive: -0.453
COc1ccc2c(c1)CCC(c1ccccc1)=C2c1ccc(OCCN2CCCC2)cc1 [nafoxidine]	inactive: -0.987	inactive: 0.331	inactive: -2.06
Cc1nc(C#Cc2ccnc(Cl)c2)c(C)n1-c1ccc(F)cc1 [Basimglurant sulfate]	inactive: -1.6	inactive: -0.365	inactive: -3.54
O=C(CO)CO [dihydroxyacetone]		inactive: -1.13	
O=C(CO)CO [dihydroxyacetone, Vinas]	inactive: -1.52		inactive: -0.409
CC(C)(C)NCc1cc(Nc2ccnc3cc(Cl)ccc23)cc(-c2ccc(Cl)cc2)c1O [tebuquine]	inactive: 1.09	inactive: -0.313	inactive: 0.0791
OCc1ccccc1O	inactive: -0.969	inactive: 0.467	inactive: 0.33
CCC(CC)CC(=O)c1c(C(=O)OC)c(-c2ccc(OC)c(OC)c2)c2c(OC)c(OC)c(OC)cc2c1O	inactive: -0.753	inactive: 3.44	inactive: 1.73
O=S(=O)([O-])CC(S)CS (configuration not stated) [Sodium 2,3-dimercapto-1-propanesulfonate]	inactive: -0.96	inactive: 0.205	inactive: 1.37
CC1(C)S[C@@H]2[C@H](NC(=O)Cc3ccccc3)C(=O)N2C1C(=O)O (some centres not stated) [Penicillin G Potassium (Benzylpenicillin)]	inactive: -1.53		inactive: -0.842
CC1(C)S[C@@H]2[C@H](NC(=O)Cc3ccccc3)C(=O)N2C1C(=O)O (some centres not stated) [Penicillin G sodium]		inactive: -1.24	
CN1CC(O)C2=CC(=O)C(=O)C=C21 (configuration not stated)	inactive: 0.0053	inactive: -0.254	inactive: -0.556
O=C(c1cc2ccccc2o1)N1CCN(Cc2ccccc2)CC1	inactive: -1.57	inactive: 1.29	inactive: 0.421
Nc1c(NC/C=C\COc2cc(CN3CCCCC3)ccn2)c(=O)c1=O	inactive: -0.997	inactive: 0.666	inactive: 1.26
COc1ccccc1N1CCN(CCc2oc(=O)[nH]c2-c2ccc(F)cc2)CC1 [zoloperone]	inactive: 2.45	inactive: -1.03	inactive: -1.18
NC(N)=NCCC[C@@H]1NC(=O)[C@@H](Cc2ccc(O)cc2)NC(=O)CS(=O)C[C@@H](C(=O)O)NC(=O)[C@H](CC(=O)O)NC(=O)CNC1=O (some centres not stated)	inactive: 4.09	inactive: 0.51	inactive: -0.902
CCN(CC)C(=O)CSc1ccc(Cl)nn1	inactive: -1.72	inactive: 1.7	inactive: 0.601
CN1C(=O)c2ccncc2/C(=C/CCCCC(=O)O)c2ccccc21	inactive: -3.28	inactive: 0.983	inactive: -0.827
FC(F)(F)Oc1ccc(Nc2ccc3cccc(Cl)c3n2)cc1	inactive: -0.0414	inactive: -1.26	active: 6.03
Cc1nnc(SCC2=C(C(=O)O)N3C(=O)C(NC(=O)Cc4ccccc4)C3SC2)s1 (configuration not stated)	inactive: -2.24	inactive: 1.05	inactive: 0.396
CCCCn1c(=O)c2c(ncn2CC(C)=O)n(CCCC)c1=O [Denbufylline]	inactive: -0.769	inactive: -1.12	inactive: -1.24

Laid out differently: entries from further up
SMILES | TEAD-luciferase reporter activity (compound concentration: 200 nM) | TEAD-luciferase reporter activity (compound concentration: 2 uM) | TEAD-luciferase reporter activity (compound concentration: 10 uM)
CC(C)(C)NCc1cc(Nc2ccnc3cc(Cl)ccc23)cc(-c2ccc(Cl)cc2)c1O [tebuquine] | inactive: 1.09 | inactive: -0.313 | inactive: 0.0791
Nc1c(NC/C=C\COc2cc(CN3CCCCC3)ccn2)c(=O)c1=O | inactive: -0.997 | inactive: 0.666 | inactive: 1.26
